According to the supplement of paper PMC7238544:
Counter-ions that a name gives are not always drawn. ± gives the standard deviation of the averaged measurements. The list shows a part of the results. The data scatter; read single values as rough.

Columns and labels:
hAMSC donor 1 [1] = assay: Hoechst total cell count ratio vs vehicle control; higher = more cells (less toxicity)
hAMSC donor 2 [2] = assay: as above
hAMSC donor 1 [3] = assay: transgenic luciferase activity (RLU/mg protein) fold change vs vehicle control (ratio); higher = more transgene expression
hAMSC donor 2 [4] = assay: as above
hAMSC donor 1 [5] = assay: transfection efficiency (EGFP+ cells / Hoechst count) fold change vs vehicle control (ratio); hAMSC are human adipose-derived mesenchymal stem cells given an EGFP-luciferase plasmid by lipofection; higher = enhanced transfection
hAMSC donor 2 [6] = assay: as above
[7] = priming compound concentration 0.2 µM
[8] = priming compound concentration 1.7 µM
[9] = priming compound concentration 13 µM

Row | SMILES | Hoechst total cell count ratio (hAMSC donor 1 [1]; [7]) | Hoechst total cell count ratio (hAMSC donor 1 [1]; [8]) | Hoechst total cell count ratio (hAMSC donor 1 [1]; [9]) | Hoechst total cell count ratio (hAMSC donor 2 [2]; [7]) | Hoechst total cell count ratio (hAMSC donor 2 [2]; [8]) | Hoechst total cell count ratio (hAMSC donor 2 [2]; [9]) | transgenic luciferase activity (hAMSC donor 1 [3]; [8]) | transgenic luciferase activity (hAMSC donor 2 [4]; [9]) | transfection efficiency (hAMSC donor 1 [5]; [7]) | transfection efficiency (hAMSC donor 1 [5]; [8]) | transfection efficiency (hAMSC donor 1 [5]; [9]) | transfection efficiency (hAMSC donor 2 [6]; [7]) | transfection efficiency (hAMSC donor 2 [6]; [8]) | transfection efficiency (hAMSC donor 2 [6]; [9]) | transgenic luciferase activity (hAMSC donor 1 [3]; [7]) | transgenic luciferase activity (hAMSC donor 2 [4]; [7]) | transgenic luciferase activity (hAMSC donor 2 [4]; [8]) | transgenic luciferase activity (hAMSC donor 1 [3]; [9])
1 | CN1[C@@H]2CC[C@H]1C[C@@H](OC(=O)c1c[nH]c3ccccc13)C2 [Tropisetron hydrochloride] | 1.08 ± 0.062 | 1.07 ± 0.066 | 1.19 ± 0.13 | 1.4 ± 0.18 | 1.16 ± 0.12 | 1.12 ± 0.086 | 1.61 ± 0.1 | 0.748 ± 0.11 | 1.14 ± 0.14 | 1.65 ± 0.48 | 0.912 ± 0.15 | 0.763 ± 0.07 | 0.943 ± 0.086 | 1.18 ± 0.21 | – | – | – | –
2 | COCCOC(=O)C1=C(C)NC(C)=C(C(=O)OC(C)C)C1c1cccc([N+](=O)[O-])c1 (stereo not drawn) [Nimodipine] | 1.19 ± 0.11 | 1.26 ± 0.049 | 1.32 ± 0.041 | 1.04 ± 0.28 | 1.32 ± 0.13 | 1.18 ± 0.24 | – | – | 1.45 ± 0.47 | 1.24 ± 0.69 | 1.09 ± 0.19 | 1.19 ± 0.19 | 0.895 ± 0.025 | 1.04 ± 0.11 | 2.03 ± 1 | 0.945 ± 0.18 | – | –
3 | Cc1cccc(C)c1NC(=O)C1CCCCN1C (stereo not drawn) [Mepivacaine hydrochloride] | 1.56 ± 0.14 | 1.21 ± 0.14 | 1.28 ± 0.093 | 1.19 ± 0.042 | 1.36 ± 0.13 | 0.931 ± 0.3 | 0.721 ± 0.19 | – | 1.28 ± 0.27 | 1.07 ± 0.25 | 1.14 ± 0.17 | 0.891 ± 0.17 | 1.12 ± 0.1 | 1.35 ± 0.091 | – | – | – | –
4 | N#Cc1ccc(C(c2ccc(C#N)cc2)n2cncn2)cc1 [Letrozole] | 0.977 ± 0.085 | 1.21 ± 0.2 | 1 ± 0.047 | 1.05 ± 0.12 | 1.45 ± 0.24 | 0.931 ± 0.39 | – | – | 1.38 ± 0.45 | 0.991 ± 0.54 | 1.48 ± 0.095 | 1.28 ± 0.35 | 0.974 ± 0.13 | 1.23 ± 0.3 | 0.613 ± 0.12 | – | 0.525 ± 0.14 | –
5 | Nc1ncn([C@@H]2O[C@H](CO)[C@@H](O)[C@H]2O)c(=O)n1 [5-Azacytidine] | 1.09 ± 0.046 | 1.06 ± 0.07 | 1.13 ± 0.055 | 1.22 ± 0.18 | 0.985 ± 0.023 | 1.03 ± 0.12 | – | – | 0.539 ± 0.14 | 1.08 ± 0.073 | 1.28 ± 0.12 | 1.11 ± 0.062 | 0.836 ± 0.054 | 1.21 ± 0.1 | 1.69 ± 0.95 | 1.15 ± 0.15 | – | –
6 | CCc1c2c(nc3ccc(OC(=O)N4CCC(N5CCCCC5)CC4)cc13)-c1cc3c(c(=O)n1C2)COC(=O)[C@]3(O)CC [Irinotecan hydrochloride] | 1.1 ± 0.072 | 0.996 ± 0.14 | 0.862 ± 0.13 | 1.31 ± 0.34 | 0.916 ± 0.059 | 0.292 ± 0.004 | 0.923 ± 0.2 | 1.45 ± 0.15 | 1.33 ± 0.23 | 2.28 ± 0.26 | – | 0.942 ± 0.23 | 1.66 ± 0.24 | – | – | – | – | –
7 | CC(c1cc2ccccc2s1)N(O)C(N)=O (stereo not drawn) [Zileuton] | 1.51 ± 0.11 | 1.3 ± 0.11 | 1.32 ± 0.077 | 1.09 ± 0.4 | 1.02 ± 0.1 | 1.33 ± 0.26 | 0.701 ± 0.094 | – | 1.27 ± 0.17 | 0.996 ± 0.11 | 1.25 ± 0.32 | 0.924 ± 0.44 | 1.19 ± 0.023 | 1.06 ± 0.27 | – | – | – | –
8 | CC(C)(C)NC(=O)[C@H]1CC[C@H]2[C@@H]3CC[C@H]4NC(=O)C=C[C@]4(C)[C@H]3CC[C@]12C [Finasteride] | 1.22 ± 0.1 | 1.19 ± 0.055 | 1.12 ± 0.14 | 1.3 ± 0.36 | 1.09 ± 0.19 | 1.38 ± 0.042 | – | – | 0.767 ± 0.13 | 0.749 ± 0.13 | 1.25 ± 0.36 | 0.934 ± 0.035 | 1.35 ± 0.23 | 0.703 ± 0.062 | – | – | – | 0.818 ± 0.6
9 | O=C1CCc2ccc(OCCCCN3CCN(c4cccc(Cl)c4Cl)CC3)cc2N1 [Aripiprazole] | 1.2 ± 0.14 | 1.48 ± 0.12 | 1.148 ± 0.0091 | 1.14 ± 0.16 | 1.13 ± 0.085 | 1.54 ± 0.19 | – | – | 0.946 ± 0.32 | 0.802 ± 0.12 | 0.731 ± 0.091 | 0.958 ± 0.062 | 0.98 ± 0.014 | 0.581 ± 0.11 | 1.04 ± 0.24 | – | – | –
10 | Clc1ccc(COC(Cn2ccnc2)c2ccc(Cl)cc2Cl)cc1 (stereo not drawn) [Econazole nitrate] | 1.66 ± 0.13 | 1.38 ± 0.18 | 1.4 ± 0.046 | 1.44 ± 0.39 | 1.33 ± 0.15 | 1.46 ± 0.085 | 0.758 ± 0.29 | – | 1.2 ± 0.28 | 0.746 ± 0.094 | 0.967 ± 0.25 | 0.789 ± 0.16 | 0.691 ± 0.1 | 0.759 ± 0.044 | – | – | – | –
11 | CN(CCCN1c2ccccc2CCc2ccccc21)CC(=O)c1ccc(Cl)cc1 [Lofepramine] | 1.35 ± 0.19 | 1.14 ± 0.28 | 1.02 ± 0.17 | 1.22 ± 0.25 | 1.05 ± 0.07 | 1.25 ± 0.078 | – | – | 1.04 ± 0.13 | 1.35 ± 0.35 | 1.61 ± 0.49 | 1.03 ± 0.14 | 1.22 ± 0.062 | 1.17 ± 0.22 | – | – | – | 0.734 ± 0.2
12 | C[C@@H](c1ncncc1F)[C@](O)(Cn1cncn1)c1ccc(F)cc1F [Voriconazole] | 1.23 ± 0.27 | 1.15 ± 0.19 | 1.25 ± 0.084 | 1.22 ± 0.32 | 1.14 ± 0.21 | 1.15 ± 0.12 | – | – | 0.871 ± 0.11 | 1.26 ± 0.16 | 0.867 ± 0.051 | 1.21 ± 0.21 | 1.46 ± 0.1 | 1.14 ± 0.057 | – | – | – | 0.738 ± 0.18
13 | CC(=O)O[C@H]1C[C@@H]2CC[C@@H]3[C@H](CC[C@@]4(C)[C@H]3C[C@H]([N+]3(C)CCCCC3)[C@@H]4OC(C)=O)[C@@]2(C)C[C@@H]1N1CCCCC1 [Vecuronium bromide] | 0.895 ± 0.14 | 0.845 ± 0.21 | 0.973 ± 0.13 | 1.5 ± 0.42 | 1.16 ± 0.22 | 0.946 ± 0.4 | – | – | 1.25 ± 0.23 | 1.44 ± 0.19 | 0.957 ± 0.22 | 1.08 ± 0.12 | 1.3 ± 0.14 | 1.21 ± 0.37 | – | – | – | 1.19 ± 0.81
14 | CCCc1nc(C)c2c(=O)nc(-c3cc(S(=O)(=O)N4CCN(CC)CC4)ccc3OCC)[nH]n12 [Vardenafil citrate] | 1.25 ± 0.34 | 1.28 ± 0.23 | 1.1 ± 0.083 | 1.11 ± 0.1 | 1.2 ± 0.053 | 1.15 ± 0.015 | – | – | 1.23 ± 0.18 | 1.11 ± 0.19 | 1.28 ± 0.24 | 1.01 ± 0.26 | 0.947 ± 0.046 | 1.12 ± 0.24 | – | – | – | 0.556 ± 0.12
15 | Clc1ccc2c(c1)CCc1cccnc1C2=C1CCNCC1 [Desloratadine] | 1.18 ± 0.1 | 1.31 ± 0.086 | 1.27 ± 0.075 | 1.11 ± 0.24 | 1.15 ± 0.084 | 1.45 ± 0.22 | – | – | 1.21 ± 0.2 | 0.833 ± 0.32 | 0.566 ± 0.21 | 1.13 ± 0.13 | 0.815 ± 0.083 | 0.533 ± 0.1 | – | – | – | 0.318 ± 0.058
